In publication PMC7819943, “Rice protein-binding microarrays: a tool to detect cis-acting elements near promoter regions in rice” one finds binding signal data, which are given here for 42 sequences.

Some of the results follow.

The experiment has as its target T1, OsSMF1 (Oryza sativa, UniProt Q6ZLB0 1-436).
T1 sequence: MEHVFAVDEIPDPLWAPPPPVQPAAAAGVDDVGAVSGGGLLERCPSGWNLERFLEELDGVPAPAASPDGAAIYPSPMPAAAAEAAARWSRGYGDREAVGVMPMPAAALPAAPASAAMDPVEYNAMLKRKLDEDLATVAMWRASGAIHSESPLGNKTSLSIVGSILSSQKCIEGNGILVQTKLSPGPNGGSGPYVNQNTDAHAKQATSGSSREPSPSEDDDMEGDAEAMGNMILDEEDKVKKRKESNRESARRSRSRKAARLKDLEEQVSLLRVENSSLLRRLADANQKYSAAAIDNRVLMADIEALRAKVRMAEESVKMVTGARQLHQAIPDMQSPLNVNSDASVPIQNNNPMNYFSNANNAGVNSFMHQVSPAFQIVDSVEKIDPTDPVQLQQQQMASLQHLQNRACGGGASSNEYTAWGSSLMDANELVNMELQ
Description: protein-binding microarray (RPBM); PBS, 2% BSA, 51.3 ng/ul salmon testes DNA, 50 uM zinc acetate, 200 nM TF, 25 C, 1 h; high values mean tight binding. Conditions: protein: recombinant; tags: N-terminal polyhistidine and DsRed monomer fusion (pET32a); chain copies: 2; label: CyDye5-dUTP incorporated in the synthesized complementary strand; 3' TTTTT single-stranded linker to array surface; dsDNA, one strand shown. The gist of the method:
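Ni–NTA purification followed expression in E. coli BL21-CodonPlus of transcription factors fused N-terminally to a polyhistidine tag and DsRed. At 200 nM in PBS with 2% BSA, salmon testes DNA and 50 µM zinc acetate, the protein was incubated for 1 h at 25 °C with a custom Agilent array that had been primer-extended with Cy5-dUTP and blocked with 2% BSA. After washing, the array was read on an Axon 4000B scanner. The binding signal is per-feature fluorescence intensity in arbitrary units.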
For “CAGCTTCTCTTCCTCCTGCAGTACTCGCCGCCACCACCACCGGAGTCACCTAGTGCAG”, the binding signal was 3420 fluorescence intensity (a.u.).

On to “AGTAACAAAGCATATAGAAGAAAACAGTAGTTTTGACAGTCGGAGTCACCTAGTGCAG”, for which the binding signal was 3400 fluorescence intensity (a.u.).

Take “TTTGAAATTTTGAATGTGACACCTATGGCCATGGTCGAACCGGAGTCACCTAGTGCAG”: the binding signal was 3350 fluorescence intensity (a.u.).

Regarding “ACACATCAGAAGAAAAGTGTTGGCAATCCAGCCTGATCATCGGAGTCACCTAGTGCAG”, the binding signal was 3360 fluorescence intensity (a.u.).

For the sequence “GACGAGACCGACGCCGTCATCCTCCTTCTCACGCTACCATCGGAGTCACCTAGTGCAG”, the binding signal is 3300 fluorescence intensity (a.u.).

Regarding “TGAGCCACGCACTGAACACGACCGTTCGATCCCCTCAAGGCGGAGTCACCTAGTGCAG”, the binding signal is 3810 fluorescence intensity (a.u.).

For “TTGGATCCAAACTTTAGTCCTTTTCCATCACATCAATCTGCGGAGTCACCTAGTGCAG”, the binding signal was 3500 fluorescence intensity (a.u.).

Take “GGCGGTCGCCTGTGCTGGCTACGCGGGGATGGATGATGGTCGGAGTCACCTAGTGCAG”: the binding signal is 3360 fluorescence intensity (a.u.).

For “ATCCGTCCATCTCTCTTCCTCCCTCCCTTGCCTTCCGGACCGGAGTCACCTAGTGCAG”, the binding signal was 20800 fluorescence intensity (a.u.).

In the case of “TTGCTACTTACTGGGTTTCAGTTGACATGGCTTTCGATGTCGGAGTCACCTAGTGCAG”, the binding signal is 3200 fluorescence intensity (a.u.).

As for “ACGTCAGCCCAGCAGCATGCCACGATGTGTATTCGTGCCGCGGAGTCACCTAGTGCAG”, the binding signal was 3570 fluorescence intensity (a.u.).

For the sequence “CATTATCGTCCCATGTGTTGTCTGCATTGCGGCATGCGTTCGGAGTCACCTAGTGCAG”, the binding signal was 3630 fluorescence intensity (a.u.).

Regarding “GATGCGCGCGAACGGAGACGACGGGGTAGGGTGGGGAGGGCGGAGTCACCTAGTGCAG”, the binding signal was 3940 fluorescence intensity (a.u.).

For “TTGACAGGATGCAAGCTGAGACACATCTGATGTCATATAACGGAGTCACCTAGTGCAG”, the binding signal is 4200 fluorescence intensity (a.u.).

As for “CCCACATCGACCATCCTGCCTTGTACGTCATCCCCGCCCTCGGAGTCACCTAGTGCAG”, the binding signal was 7100 fluorescence intensity (a.u.).

In the case of “ATAACAAAGATATAGTACTCCTACGTGGAATATATGTTTACGGAGTCACCTAGTGCAG”, the binding signal was 5200 fluorescence intensity (a.u.).

Regarding “GGATCGAGAAGGAAGGAGGCGATGGATGGACTGACCTGGACGGAGTCACCTAGTGCAG”, the binding signal was 32400 fluorescence intensity (a.u.).

Take “AGTTTATTTCTTGTATGTTTACATTATGCACACAATTGAGCGGAGTCACCTAGTGCAG”: the binding signal is 3170 fluorescence intensity (a.u.).

Consider “CTCATGTTCTTGACCCCTGCATCATCAAATACCTCACCTCCGGAGTCACCTAGTGCAG”, for which the binding signal was 4050 fluorescence intensity (a.u.).

On to “TATCATTAGCAAATATTTACTGTAGCAACATATTGTCAAACGGAGTCACCTAGTGCAG”, for which the binding signal was 3180 fluorescence intensity (a.u.).

For the sequence “GAGGATGAACTGATGACGTGCAGCTTTGGATGGATGGAGTCGGAGTCACCTAGTGCAG”, the binding signal was 13200 fluorescence intensity (a.u.).

On to “TGGCTAGTTTGGTAAAGTTAGTACAAAATTTAAAATTATGCGGAGTCACCTAGTGCAG”, for which the binding signal is 3650 fluorescence intensity (a.u.).

On to “GCCCTCCTCCGCCGCCACCTCCCTCAAGGCCACCGCCGCACGGAGTCACCTAGTGCAG”, for which the binding signal is 3220 fluorescence intensity (a.u.).

Turning to “GCACCGGCTCCAGTCCACCGGCCACACGTCAGCGACGCCTCGGAGTCACCTAGTGCAG”, the binding signal was 9880 fluorescence intensity (a.u.).

As to “ATAGTGCCTTCCCTTTTACGTATCGTGCCACGTACACGTACGGAGTCACCTAGTGCAG”, the binding signal is 8650 fluorescence intensity (a.u.).

With “TTATTTGACAAAGTACACCAGCTGACGCAATGGCTGTAGTCGGAGTCACCTAGTGCAG”, the binding signal was 7340 fluorescence intensity (a.u.).

For “GCAGTTTGTCTCATGTGCTGCTGACTAGATATTGATCATACGGAGTCACCTAGTGCAG”, the binding signal is 11400 fluorescence intensity (a.u.).

“CGGTGGAGCGGGCTGCACGGCGACCAGAGCGGCGACGTAGCGGAGTCACCTAGTGCAG”: the binding signal was 12300 fluorescence intensity (a.u.).

Take “CAACGTGTTCAGCTACTCCCTCCACGCGGCAACCGACGCGCGGAGTCACCTAGTGCAG”: the binding signal was 4240 fluorescence intensity (a.u.).

As for “CCGGAAAATCTATCTGTGCTTATAAATAGCCATTATCCAACGGAGTCACCTAGTGCAG”, the binding signal was 57400 fluorescence intensity (a.u.).

Turning to “ATAATTATTCCAATGTGATATACATGCACACGTGTGAGTCCGGAGTCACCTAGTGCAG”, the binding signal is 5440 fluorescence intensity (a.u.).

For “TCTAGAGATGAAAAGCTCAGTACATGTCACACTTGTTCTGCGGAGTCACCTAGTGCAG”, the binding signal was 3700 fluorescence intensity (a.u.).

Take “AATAGAGAAGAGGCTGACGTGGCTTCCTGACATGTGGGATCGGAGTCACCTAGTGCAG”: the binding signal is 14600 fluorescence intensity (a.u.).

Consider “GTTCTGTTTAGGGGCCGGGGTGGCATAACAGAATAAGTTGCGGAGTCACCTAGTGCAG”, for which the binding signal was 4470 fluorescence intensity (a.u.).

“ACCTCACTCATCTATATGCATGATATAGCAGTTTGAGTATCGGAGTCACCTAGTGCAG”: the binding signal was 3140 fluorescence intensity (a.u.).

As to “CATTTTGTACTTTGACAAGTATTTAATATTTGCCAGTAGTCGGAGTCACCTAGTGCAG”, the binding signal was 65100 fluorescence intensity (a.u.).

“TATATAATTCTAATGTCATATAAGCGTCATGTGGGATGAACGGAGTCACCTAGTGCAG”: the binding signal is 4520 fluorescence intensity (a.u.).

As for “CAGCTGGCACCACCCATTCCTCGCGTCGCATCGCACTTGTCGGAGTCACCTAGTGCAG”, the binding signal was 3170 fluorescence intensity (a.u.).

As to “ACCATATCCTCTAGCAAGATATGCCATTAATCACCTAACACGGAGTCACCTAGTGCAG”, the binding signal is 3230 fluorescence intensity (a.u.).

On to “CTGAGCACGAACGGAGAGCGTGGCCGTCGTGGAAGTACTACGGAGTCACCTAGTGCAG”, for which the binding signal is 5140 fluorescence intensity (a.u.).

As for “GCCCCGGCGGTAAGCACGGTTACCGCACGGTAACCGCGGTCGGAGTCACCTAGTGCAG”, the binding signal is 20400 fluorescence intensity (a.u.).

Regarding “CGACGCTGATCTCAAATATTTCGACCACCATTGCCCGTATCGGAGTCACCTAGTGCAG”, the binding signal is 3200 fluorescence intensity (a.u.).
